At least one read-out could not be matched to a standard name with certainty.
Assay: Hydrolysis kinetics of wild-type Rhodococcus EGC using 2,4-dinitrophenyl lactoside as the substrate
Assay type: biochemical
Settings: addition of Triton X-100 to 0.1%
Method: FIG. 18 illustrates a Michaelis-Menten curve for wild-type Rhodococcus EGC using 2,4-dinitrophenyl lactoside as the substrate.
FIGS. 19A-19C illustrate variation of kcat, Km, and kcat/Km with increasing detergent concentration for wild-type Rhodococcus EGC.
FIG. 20 illustrates pH rate profile for wild-type Rhodococcus EGC.
Using 2,4-dinitrophenyl lactoside as a substrate, the Rhodococcus M-777 EGC enzyme has a Km of approximately 2 mM, and a kcat of 90 min-1 (FIG. 18). The dependence of the activity on detergent concentration was also investigated. […] The dependence of kcat/Km on detergent concentration leveled off at concentrations greater than 0.5%; increasing the detergent concentration caused a steady increase in both kcat and Km up to a concentration of 1% (FIGS. 19A-C). The pH dependence of the hydrolysis activity was also investigated. As expected, the maximal kcat/Km is observed around pH 5 (FIG. 20).

B1: Rhodococcus M-777 EGC: wild-type endoglycoceramidase from Rhodococcus sp. M-777, GenBank AAB67050, SEQ ID NO:3 (protein, listed as Rhodococcus sp.)
chain: MRRTRLVSLIVTGSLVFGGGVAAAQSSLAASGSGSGSGTALTPSYLKDDDGRSLILRGFNTASSAKSAPDGMPQFTEADLAREYADMGTNFVRFLISWRSVEPAPGVYDQQYLDRVEDRVGWYAERGYKVMLDMHQDVYSGAITPEGNSGNGAGAIGNGAPAWATYMDGLPVEPQPRWELYYIQPGVMRAFDNFWNTTGKHPELVEHYAKAWRAVADRFADNDAVVAYDLMNEPFGGSLQGPAFEAGPLAAMYQRTTDAIRQVDQDTWVCVAPQAIGVNQGLPSGLTKIDDPRAGQQRIAYCPHLYPLPLDIGDGHEGLARTLTDVTIDAWRANTAHTARVLGDVPIILGEFGLDTTLPGARDYIERVYGTAREMGAGVSYWSSDPGPWGPYLPDGTQTLLVDTLNKPYPRAVAGTPTEWSSTSDRLQLTIEPDAAITAPTEIYLPEAGFPGDVHVEGADVVGWDRQSRLLTVRTPADSGNVTVTVTPAA
For B1, the kcat/Km was “increased dramatically”.

Reference: patent US10294504B2, “Mutant endoglycoceramidases with enhanced synthetic activity” (La Jolla Pharmaceutical Company, priority 2004, dated 2019)
